This passage reports binding results from article PMC6477152 (2019).

Sequences of proteins named here, by UniProt entry; tags and fusion partners are left off. A change or cut given only in a name is not applied to a line headed by its entry. A line that says so, or that is headed by a name, gives the form on record, which may keep a tag or linker. Residues count along the entry.
UniProt A7MCY6: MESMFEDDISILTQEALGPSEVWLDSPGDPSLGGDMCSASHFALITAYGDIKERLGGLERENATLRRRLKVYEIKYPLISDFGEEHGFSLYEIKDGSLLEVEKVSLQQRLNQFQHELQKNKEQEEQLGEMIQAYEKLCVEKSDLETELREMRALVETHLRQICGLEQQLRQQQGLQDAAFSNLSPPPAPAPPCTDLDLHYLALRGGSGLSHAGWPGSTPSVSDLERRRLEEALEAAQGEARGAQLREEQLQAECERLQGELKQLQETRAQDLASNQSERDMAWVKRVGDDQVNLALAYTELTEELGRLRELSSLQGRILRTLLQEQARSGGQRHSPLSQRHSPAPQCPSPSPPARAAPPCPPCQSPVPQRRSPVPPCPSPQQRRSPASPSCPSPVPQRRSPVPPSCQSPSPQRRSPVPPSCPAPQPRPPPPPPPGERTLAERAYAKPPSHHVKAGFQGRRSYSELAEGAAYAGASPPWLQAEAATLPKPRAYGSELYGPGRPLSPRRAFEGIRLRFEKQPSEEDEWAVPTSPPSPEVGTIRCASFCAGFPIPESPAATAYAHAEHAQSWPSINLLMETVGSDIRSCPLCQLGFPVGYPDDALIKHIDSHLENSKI
GST:SINTBADaa5-85: residues 5-85 of A7MCY6
UniProt Q9H6S1: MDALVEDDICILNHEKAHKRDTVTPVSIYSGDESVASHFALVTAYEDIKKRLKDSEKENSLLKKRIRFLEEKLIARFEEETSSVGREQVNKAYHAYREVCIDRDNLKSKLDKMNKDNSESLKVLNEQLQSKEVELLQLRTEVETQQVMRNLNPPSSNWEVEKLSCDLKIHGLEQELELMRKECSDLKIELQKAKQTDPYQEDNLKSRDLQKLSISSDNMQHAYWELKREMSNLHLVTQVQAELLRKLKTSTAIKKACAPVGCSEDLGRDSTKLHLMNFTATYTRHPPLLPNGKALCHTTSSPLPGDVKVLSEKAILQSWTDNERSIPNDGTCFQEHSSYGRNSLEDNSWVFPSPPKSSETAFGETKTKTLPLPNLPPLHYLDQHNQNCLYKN
GST-FIP200ΔN1115 (Q8TDY2, residues 1116-1594): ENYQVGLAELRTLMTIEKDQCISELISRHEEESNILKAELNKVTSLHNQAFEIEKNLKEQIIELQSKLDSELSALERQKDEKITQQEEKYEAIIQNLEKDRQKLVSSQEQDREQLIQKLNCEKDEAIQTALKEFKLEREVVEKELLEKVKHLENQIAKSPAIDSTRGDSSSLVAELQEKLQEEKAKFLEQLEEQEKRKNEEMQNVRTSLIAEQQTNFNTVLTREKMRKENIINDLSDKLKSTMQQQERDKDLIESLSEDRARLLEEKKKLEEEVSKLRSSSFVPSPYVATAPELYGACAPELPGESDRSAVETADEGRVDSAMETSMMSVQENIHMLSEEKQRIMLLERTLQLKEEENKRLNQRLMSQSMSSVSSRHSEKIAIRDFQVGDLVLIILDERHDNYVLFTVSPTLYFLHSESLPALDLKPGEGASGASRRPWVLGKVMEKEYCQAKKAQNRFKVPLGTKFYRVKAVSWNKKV
FIP200 ΔN1115 E1463A-Luciferase (Q8TDY2, form named): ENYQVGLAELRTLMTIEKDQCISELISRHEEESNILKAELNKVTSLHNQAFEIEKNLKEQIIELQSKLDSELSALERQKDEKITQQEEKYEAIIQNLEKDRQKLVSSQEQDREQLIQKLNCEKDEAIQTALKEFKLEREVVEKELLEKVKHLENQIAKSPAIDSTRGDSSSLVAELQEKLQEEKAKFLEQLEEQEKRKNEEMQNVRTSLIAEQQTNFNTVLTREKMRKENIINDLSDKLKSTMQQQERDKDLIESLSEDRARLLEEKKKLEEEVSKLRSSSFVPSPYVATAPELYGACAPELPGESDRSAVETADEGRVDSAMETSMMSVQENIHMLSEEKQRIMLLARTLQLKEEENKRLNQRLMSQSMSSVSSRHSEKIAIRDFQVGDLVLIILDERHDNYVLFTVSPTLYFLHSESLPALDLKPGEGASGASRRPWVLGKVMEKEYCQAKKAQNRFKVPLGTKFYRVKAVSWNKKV
FIP200 ΔN1115 F1574S-Luciferase (Q8TDY2, form named): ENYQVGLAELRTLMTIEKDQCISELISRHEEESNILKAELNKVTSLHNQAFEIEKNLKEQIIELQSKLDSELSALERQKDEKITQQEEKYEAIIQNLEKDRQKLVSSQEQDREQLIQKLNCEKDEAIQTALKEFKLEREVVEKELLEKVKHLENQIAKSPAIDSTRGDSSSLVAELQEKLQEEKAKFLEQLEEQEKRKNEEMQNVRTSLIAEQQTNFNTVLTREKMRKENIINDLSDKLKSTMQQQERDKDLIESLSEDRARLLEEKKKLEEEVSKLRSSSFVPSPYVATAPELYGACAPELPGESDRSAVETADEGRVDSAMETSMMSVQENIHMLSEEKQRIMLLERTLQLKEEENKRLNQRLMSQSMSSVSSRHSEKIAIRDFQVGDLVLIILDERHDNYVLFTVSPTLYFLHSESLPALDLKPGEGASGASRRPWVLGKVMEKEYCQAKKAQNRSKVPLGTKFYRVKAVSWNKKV
FIP200 ΔN1115 L1462A-Luciferase (Q8TDY2, form named): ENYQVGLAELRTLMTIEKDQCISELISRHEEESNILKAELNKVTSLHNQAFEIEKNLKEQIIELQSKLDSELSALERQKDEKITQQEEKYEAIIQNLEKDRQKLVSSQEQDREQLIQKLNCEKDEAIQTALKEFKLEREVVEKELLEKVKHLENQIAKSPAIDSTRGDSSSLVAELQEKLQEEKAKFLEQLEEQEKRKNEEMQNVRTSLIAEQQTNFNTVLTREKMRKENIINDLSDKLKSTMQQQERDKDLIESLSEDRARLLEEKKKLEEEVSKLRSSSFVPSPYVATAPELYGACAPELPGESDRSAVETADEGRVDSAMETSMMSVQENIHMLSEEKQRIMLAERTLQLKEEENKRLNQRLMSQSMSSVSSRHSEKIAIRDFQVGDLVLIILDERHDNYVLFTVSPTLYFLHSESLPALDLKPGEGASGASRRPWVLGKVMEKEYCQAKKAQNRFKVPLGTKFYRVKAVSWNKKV
FIP200 ΔN1115 L1466A-Luciferase (Q8TDY2, form named): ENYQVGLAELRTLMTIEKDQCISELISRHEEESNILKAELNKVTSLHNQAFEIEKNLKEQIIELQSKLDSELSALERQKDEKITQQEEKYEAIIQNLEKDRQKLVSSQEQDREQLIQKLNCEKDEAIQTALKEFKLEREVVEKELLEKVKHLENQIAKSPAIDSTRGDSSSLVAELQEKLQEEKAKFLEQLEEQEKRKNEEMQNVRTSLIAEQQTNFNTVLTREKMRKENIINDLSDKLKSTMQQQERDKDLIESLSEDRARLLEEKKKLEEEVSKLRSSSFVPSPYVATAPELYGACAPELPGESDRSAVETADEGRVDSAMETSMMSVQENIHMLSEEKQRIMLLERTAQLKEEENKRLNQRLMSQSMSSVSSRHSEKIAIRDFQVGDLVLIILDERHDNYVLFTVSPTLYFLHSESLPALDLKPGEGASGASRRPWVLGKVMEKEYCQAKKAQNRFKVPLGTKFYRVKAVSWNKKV
FIP200 ΔN1115 L1468A-Luciferase (Q8TDY2, form named): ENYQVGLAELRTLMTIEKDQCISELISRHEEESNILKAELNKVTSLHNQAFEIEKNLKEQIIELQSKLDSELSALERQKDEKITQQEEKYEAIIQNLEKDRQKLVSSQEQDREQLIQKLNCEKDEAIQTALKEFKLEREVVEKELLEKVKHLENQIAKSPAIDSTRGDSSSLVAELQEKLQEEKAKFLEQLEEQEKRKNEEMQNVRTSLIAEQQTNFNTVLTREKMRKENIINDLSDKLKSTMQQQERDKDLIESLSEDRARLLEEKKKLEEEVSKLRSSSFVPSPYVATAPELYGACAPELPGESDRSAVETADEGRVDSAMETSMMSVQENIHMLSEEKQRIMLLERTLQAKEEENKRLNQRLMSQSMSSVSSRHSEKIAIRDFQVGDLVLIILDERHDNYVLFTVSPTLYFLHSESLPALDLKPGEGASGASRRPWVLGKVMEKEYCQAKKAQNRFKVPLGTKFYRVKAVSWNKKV
FIP200 ΔN1115 N1572S-Luciferase (Q8TDY2, form named): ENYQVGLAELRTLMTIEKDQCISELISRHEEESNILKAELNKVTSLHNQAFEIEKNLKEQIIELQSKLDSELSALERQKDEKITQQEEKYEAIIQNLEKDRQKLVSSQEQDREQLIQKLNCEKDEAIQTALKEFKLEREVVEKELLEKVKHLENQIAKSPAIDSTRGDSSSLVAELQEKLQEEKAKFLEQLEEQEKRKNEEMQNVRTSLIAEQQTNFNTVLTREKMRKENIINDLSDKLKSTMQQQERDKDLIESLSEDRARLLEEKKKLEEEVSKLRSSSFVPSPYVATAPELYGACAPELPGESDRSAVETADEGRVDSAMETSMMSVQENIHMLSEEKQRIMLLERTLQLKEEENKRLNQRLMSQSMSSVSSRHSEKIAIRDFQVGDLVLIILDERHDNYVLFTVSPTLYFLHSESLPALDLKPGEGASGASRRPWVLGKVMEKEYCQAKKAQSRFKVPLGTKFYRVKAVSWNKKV
FIP200 ΔN1115 Q1467A-Luciferase (Q8TDY2, form named): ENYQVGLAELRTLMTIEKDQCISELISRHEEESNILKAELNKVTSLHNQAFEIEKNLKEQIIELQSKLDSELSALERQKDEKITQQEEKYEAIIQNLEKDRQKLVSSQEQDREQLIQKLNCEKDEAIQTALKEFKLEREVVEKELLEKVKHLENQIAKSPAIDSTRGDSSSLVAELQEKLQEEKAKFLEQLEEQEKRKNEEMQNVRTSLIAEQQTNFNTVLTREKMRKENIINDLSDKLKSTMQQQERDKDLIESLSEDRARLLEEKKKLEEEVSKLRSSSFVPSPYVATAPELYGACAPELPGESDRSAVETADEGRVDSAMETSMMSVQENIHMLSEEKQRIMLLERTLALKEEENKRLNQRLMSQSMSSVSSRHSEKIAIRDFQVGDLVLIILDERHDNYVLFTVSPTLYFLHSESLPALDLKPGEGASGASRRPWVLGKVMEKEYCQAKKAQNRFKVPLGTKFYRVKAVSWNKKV
FIP200 ΔN1115 R1464A-Luciferase (Q8TDY2, form named): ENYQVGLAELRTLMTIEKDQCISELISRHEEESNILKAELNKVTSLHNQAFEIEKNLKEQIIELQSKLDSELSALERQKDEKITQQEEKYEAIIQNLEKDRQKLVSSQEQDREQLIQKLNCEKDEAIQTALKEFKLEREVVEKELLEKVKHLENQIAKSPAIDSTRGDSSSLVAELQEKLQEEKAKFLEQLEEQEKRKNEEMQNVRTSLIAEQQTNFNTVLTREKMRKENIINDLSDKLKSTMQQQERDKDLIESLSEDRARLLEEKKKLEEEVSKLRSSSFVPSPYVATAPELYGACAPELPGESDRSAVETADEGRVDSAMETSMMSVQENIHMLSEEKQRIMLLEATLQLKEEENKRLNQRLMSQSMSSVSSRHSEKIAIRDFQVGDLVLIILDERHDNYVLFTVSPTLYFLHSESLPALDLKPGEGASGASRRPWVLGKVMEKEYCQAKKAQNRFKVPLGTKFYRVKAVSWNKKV
FIP200 ΔN1115 T1465A-Luciferase (Q8TDY2, form named): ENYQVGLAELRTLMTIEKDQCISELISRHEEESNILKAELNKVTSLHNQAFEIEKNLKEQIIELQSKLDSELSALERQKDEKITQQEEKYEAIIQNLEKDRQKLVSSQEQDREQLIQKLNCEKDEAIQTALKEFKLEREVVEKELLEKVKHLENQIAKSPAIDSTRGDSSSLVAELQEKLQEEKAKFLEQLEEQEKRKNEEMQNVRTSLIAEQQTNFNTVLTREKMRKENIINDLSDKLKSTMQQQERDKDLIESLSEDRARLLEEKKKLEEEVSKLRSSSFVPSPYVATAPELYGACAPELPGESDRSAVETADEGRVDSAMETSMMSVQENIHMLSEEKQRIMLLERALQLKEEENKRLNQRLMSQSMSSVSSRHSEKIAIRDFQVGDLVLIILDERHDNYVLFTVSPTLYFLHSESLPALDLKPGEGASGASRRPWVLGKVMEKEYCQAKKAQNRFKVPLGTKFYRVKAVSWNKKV
FIP200 ΔN1115 V1576S-Luciferase (Q8TDY2, form named): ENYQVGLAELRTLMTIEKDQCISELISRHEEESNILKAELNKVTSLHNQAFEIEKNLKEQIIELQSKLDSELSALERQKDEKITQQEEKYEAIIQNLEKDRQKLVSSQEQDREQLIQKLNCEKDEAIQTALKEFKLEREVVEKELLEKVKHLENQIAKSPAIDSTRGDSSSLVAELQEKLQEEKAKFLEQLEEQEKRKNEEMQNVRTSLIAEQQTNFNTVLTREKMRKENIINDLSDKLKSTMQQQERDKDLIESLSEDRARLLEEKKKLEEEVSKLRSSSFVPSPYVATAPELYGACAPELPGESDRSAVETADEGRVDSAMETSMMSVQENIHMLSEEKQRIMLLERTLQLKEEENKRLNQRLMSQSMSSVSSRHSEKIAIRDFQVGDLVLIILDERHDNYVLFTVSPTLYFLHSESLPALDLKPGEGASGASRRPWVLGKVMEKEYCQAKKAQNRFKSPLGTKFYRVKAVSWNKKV

Results are given in words; binding and its absence hold for the method and conditions named. Binding seen in cells or lysates may run through a third protein. Some binding calls cover weakened binding; strength is not graded here. For some of these results: Where a sequence is shown, tags or fusion partners need not be part of it.

The target in experiment [1] is GST:SINTBADaa5-85 (human) (UniProt A7MCY6). In words: pull-down; GST-based LUMIER: GST fusion from E. coli immobilised on glutathione 4b Sepharose beads, incubated with lysate of transfected HEK293ET cells expressing the Renilla luciferase-tagged protein, 2 h at 4°C, four washes, eluted with 20 mM glutathione, luciferase activity as fold binding against GST only; only the target purified.

The target in another experiment is GST:NAP1aa5–75 (human) (UniProt Q9H6S1). Described as above.
Experiment [2] deals with GST-FIP200ΔN1115 (human) (UniProt Q8TDY2). The description is as above.
The target of the next experiment is T1, Luciferase:NDP52 (human) (UniProt Q13137).
T1 sequence: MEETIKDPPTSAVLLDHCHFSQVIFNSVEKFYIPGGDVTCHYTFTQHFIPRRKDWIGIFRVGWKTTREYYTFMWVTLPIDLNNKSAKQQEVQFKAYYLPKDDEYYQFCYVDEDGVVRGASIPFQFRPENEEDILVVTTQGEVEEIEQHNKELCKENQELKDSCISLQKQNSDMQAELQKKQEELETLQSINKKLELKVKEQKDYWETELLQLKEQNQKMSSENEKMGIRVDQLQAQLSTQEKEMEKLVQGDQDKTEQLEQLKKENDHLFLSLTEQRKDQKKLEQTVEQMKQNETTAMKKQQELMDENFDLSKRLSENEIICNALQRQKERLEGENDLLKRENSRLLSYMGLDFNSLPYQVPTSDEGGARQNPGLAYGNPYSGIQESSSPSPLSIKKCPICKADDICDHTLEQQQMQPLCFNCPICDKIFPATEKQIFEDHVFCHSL
In words: pull-down; same experiment as a5; pair of the titrated fragment in bacterial lysate with Luciferase:NDP52, read as luciferase brought to GST-FIP200ΔN1115 beads (bell-shaped curves).

Experiment [3] has as its target T2, Luciferase-NDP52 A119Q (human) (UniProt Q13137).
T2 sequence: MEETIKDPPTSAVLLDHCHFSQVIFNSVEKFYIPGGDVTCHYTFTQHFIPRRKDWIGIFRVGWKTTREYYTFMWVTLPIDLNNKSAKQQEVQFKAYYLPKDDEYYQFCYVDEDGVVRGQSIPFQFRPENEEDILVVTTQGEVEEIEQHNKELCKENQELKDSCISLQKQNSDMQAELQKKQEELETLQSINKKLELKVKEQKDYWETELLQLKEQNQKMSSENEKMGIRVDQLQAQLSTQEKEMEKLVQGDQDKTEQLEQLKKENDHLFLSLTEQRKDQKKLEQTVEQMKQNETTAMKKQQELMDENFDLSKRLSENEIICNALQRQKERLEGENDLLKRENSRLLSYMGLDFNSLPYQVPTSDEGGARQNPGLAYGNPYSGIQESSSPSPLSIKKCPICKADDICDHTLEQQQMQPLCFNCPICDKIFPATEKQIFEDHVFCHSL
The experiment is described as above.

Experiment [4] has as its target GST-FIP200ΔN1115 (human) (UniProt Q8TDY2). The experiment can be described thus: pull-down; GST-based LUMIER with GST-FIP200ΔN1115 and Luciferase:NDP52 in the presence of titrated amounts of bacterial lysates containing SINTBADaa5-85 or NAP1aa5-75; pairs with the GST bait; only the target purified.
Experiment [5] deals with FLAG-NAP1 (HEK293ET) (human) (UniProt Q9H6S1). The experiment can be described thus: co-IP; FLAG-based LUMIER: FLAG and Renilla luciferase fusions cotransfected into HEK293ET cells, FLAG protein immobilised on anti-FLAG M2 agarose 2 h at 4°C (20 mM Tris pH7.4, 150 mM NaCl, 0.1% Triton X-100, 5% glycerol), eluted with FLAG peptide, luciferase as fold binding against FLAG-GFP.

For experiment [6], the target named is FLAG-SINTBAD (HEK293ET) (human) (UniProt A7MCY6). The experiment is described as above.

As to “FIP200 ΔN1115 E1463A-Luciferase (from UniProt Q8TDY2 1116-1594) (domain or fragment)”, the binding result in experiment [1] is “binds”.
With “FIP200 ΔN1115 F1574S-Luciferase (from UniProt Q8TDY2 1116-1594) (domain or fragment)”, the binding result (in experiment [1]; with GST:NAP1aa5–75 (human)) was “no binding” in each case.
With “FIP200 ΔN1115 L1462A-Luciferase (from UniProt Q8TDY2 1116-1594) (domain or fragment)”, the binding entry in experiment [1] is “binds”.
On the same count and under the same terms, to “FIP200 ΔN1115 L1466A-Luciferase (from UniProt Q8TDY2 1116-1594) (domain or fragment)” belongs “binds”; to “FIP200 ΔN1115 L1468A-Luciferase (from UniProt Q8TDY2 1116-1594) (domain or fragment)”, “binds”.
In the case of “FIP200 ΔN1115 N1572S-Luciferase (from UniProt Q8TDY2 1116-1594) (domain or fragment)”, the binding entry (in experiment [1]; in the experiment with GST:NAP1aa5–75 (human)) was “no binding” throughout.
Turning to “FIP200 ΔN1115 Q1467A-Luciferase (from UniProt Q8TDY2 1116-1594) (domain or fragment)”, the binding result in experiment [1] was “binds”.
Still for that read-out and setting: to “FIP200 ΔN1115 R1464A-Luciferase (from UniProt Q8TDY2 1116-1594) (domain or fragment)” belongs “binds”; to “FIP200 ΔN1115 T1465A-Luciferase (from UniProt Q8TDY2 1116-1594) (domain or fragment)”, “binds”.
Regarding “FIP200 ΔN1115 V1576S-Luciferase (from UniProt Q8TDY2 1116-1594) (domain or fragment)”, the binding entry (in experiment [1]; with GST:NAP1aa5–75 (human)) was “no binding” in each case.
With “FIP200ΔN1115:Luciferase (from UniProt Q8TDY2 1116-1594) (domain or fragment)”, the binding entry (in experiment [1]; with GST:NAP1aa5–75 (human)) was “binds” throughout.
As to “Luciferase-SINTBAD ΔN5 (from UniProt A7MCY6 6-615) (domain or fragment)”, the binding result in the experiment with GST-FIP200ΔN1115 (human) [2] is given as “binds”.
The same measure, in the same setting: to “Luciferase-SINTBAD ΔN15 (from UniProt A7MCY6 16-615) (domain or fragment)” belongs “no binding”; to “Luciferase-tagged SINTBAD (from UniProt A7MCY6 1-615)”, “binds”.
With “NAP1aa5-75 (bacterial lysate) (from UniProt Q9H6S1 5-75) (domain or fragment)”, the binding result is “binds” in the experiment with Luciferase:NDP52 (human), “no binding” in experiment [3] and “binds” in the experiment with GST-FIP200ΔN1115 (human) [4].

B1: Luciferase:NDP52 (protein, UniProt Q13137 1-446)
chain: MEETIKDPPTSAVLLDHCHFSQVIFNSVEKFYIPGGDVTCHYTFTQHFIPRRKDWIGIFRVGWKTTREYYTFMWVTLPIDLNNKSAKQQEVQFKAYYLPKDDEYYQFCYVDEDGVVRGASIPFQFRPENEEDILVVTTQGEVEEIEQHNKELCKENQELKDSCISLQKQNSDMQAELQKKQEELETLQSINKKLELKVKEQKDYWETELLQLKEQNQKMSSENEKMGIRVDQLQAQLSTQEKEMEKLVQGDQDKTEQLEQLKKENDHLFLSLTEQRKDQKKLEQTVEQMKQNETTAMKKQQELMDENFDLSKRLSENEIICNALQRQKERLEGENDLLKRENSRLLSYMGLDFNSLPYQVPTSDEGGARQNPGLAYGNPYSGIQESSSPSPLSIKKCPICKADDICDHTLEQQQMQPLCFNCPICDKIFPATEKQIFEDHVFCHSL
For the molecule B1, the binding entry in experiment [5] and in experiment [6] was “binds” each time.

B2: Luciferase-NDP52 A119Q (protein, UniProt Q13137 1-446)
chain: MEETIKDPPTSAVLLDHCHFSQVIFNSVEKFYIPGGDVTCHYTFTQHFIPRRKDWIGIFRVGWKTTREYYTFMWVTLPIDLNNKSAKQQEVQFKAYYLPKDDEYYQFCYVDEDGVVRGQSIPFQFRPENEEDILVVTTQGEVEEIEQHNKELCKENQELKDSCISLQKQNSDMQAELQKKQEELETLQSINKKLELKVKEQKDYWETELLQLKEQNQKMSSENEKMGIRVDQLQAQLSTQEKEMEKLVQGDQDKTEQLEQLKKENDHLFLSLTEQRKDQKKLEQTVEQMKQNETTAMKKQQELMDENFDLSKRLSENEIICNALQRQKERLEGENDLLKRENSRLLSYMGLDFNSLPYQVPTSDEGGARQNPGLAYGNPYSGIQESSSPSPLSIKKCPICKADDICDHTLEQQQMQPLCFNCPICDKIFPATEKQIFEDHVFCHSL
As for B2, the binding result in experiment [5] and in experiment [6] was “no binding” each time.

B3: Luciferase-NDP52 Y96S (protein, UniProt Q13137 1-446)
chain: MEETIKDPPTSAVLLDHCHFSQVIFNSVEKFYIPGGDVTCHYTFTQHFIPRRKDWIGIFRVGWKTTREYYTFMWVTLPIDLNNKSAKQQEVQFKASYLPKDDEYYQFCYVDEDGVVRGASIPFQFRPENEEDILVVTTQGEVEEIEQHNKELCKENQELKDSCISLQKQNSDMQAELQKKQEELETLQSINKKLELKVKEQKDYWETELLQLKEQNQKMSSENEKMGIRVDQLQAQLSTQEKEMEKLVQGDQDKTEQLEQLKKENDHLFLSLTEQRKDQKKLEQTVEQMKQNETTAMKKQQELMDENFDLSKRLSENEIICNALQRQKERLEGENDLLKRENSRLLSYMGLDFNSLPYQVPTSDEGGARQNPGLAYGNPYSGIQESSSPSPLSIKKCPICKADDICDHTLEQQQMQPLCFNCPICDKIFPATEKQIFEDHVFCHSL
Take B3: the binding entry in experiment [5] and in experiment [6] was “binds” each time.

B4: Luciferase-NDP52 Y70H (protein, UniProt Q13137 1-446)
chain: MEETIKDPPTSAVLLDHCHFSQVIFNSVEKFYIPGGDVTCHYTFTQHFIPRRKDWIGIFRVGWKTTREYHTFMWVTLPIDLNNKSAKQQEVQFKAYYLPKDDEYYQFCYVDEDGVVRGASIPFQFRPENEEDILVVTTQGEVEEIEQHNKELCKENQELKDSCISLQKQNSDMQAELQKKQEELETLQSINKKLELKVKEQKDYWETELLQLKEQNQKMSSENEKMGIRVDQLQAQLSTQEKEMEKLVQGDQDKTEQLEQLKKENDHLFLSLTEQRKDQKKLEQTVEQMKQNETTAMKKQQELMDENFDLSKRLSENEIICNALQRQKERLEGENDLLKRENSRLLSYMGLDFNSLPYQVPTSDEGGARQNPGLAYGNPYSGIQESSSPSPLSIKKCPICKADDICDHTLEQQQMQPLCFNCPICDKIFPATEKQIFEDHVFCHSL
For B4, the binding result in experiment [5] and in experiment [6] was “binds” throughout.

B5: Luciferase-NDP52 I24N (protein, UniProt Q13137 1-446)
chain: MEETIKDPPTSAVLLDHCHFSQVNFNSVEKFYIPGGDVTCHYTFTQHFIPRRKDWIGIFRVGWKTTREYYTFMWVTLPIDLNNKSAKQQEVQFKAYYLPKDDEYYQFCYVDEDGVVRGASIPFQFRPENEEDILVVTTQGEVEEIEQHNKELCKENQELKDSCISLQKQNSDMQAELQKKQEELETLQSINKKLELKVKEQKDYWETELLQLKEQNQKMSSENEKMGIRVDQLQAQLSTQEKEMEKLVQGDQDKTEQLEQLKKENDHLFLSLTEQRKDQKKLEQTVEQMKQNETTAMKKQQELMDENFDLSKRLSENEIICNALQRQKERLEGENDLLKRENSRLLSYMGLDFNSLPYQVPTSDEGGARQNPGLAYGNPYSGIQESSSPSPLSIKKCPICKADDICDHTLEQQQMQPLCFNCPICDKIFPATEKQIFEDHVFCHSL
Take B5: the binding entry in experiment [5] and in experiment [6] was “binds” each time.
